# From the supplement of paper PMC12823440, “Inhibitors supercharge kinase turnover through native proteolytic circuits” (Nature, 2025)
# Amino acid sequences for entries named in this document (tags omitted). A change or cut given only in a name is not applied to a line headed by its entry.
# UniProt Q9Y6E0: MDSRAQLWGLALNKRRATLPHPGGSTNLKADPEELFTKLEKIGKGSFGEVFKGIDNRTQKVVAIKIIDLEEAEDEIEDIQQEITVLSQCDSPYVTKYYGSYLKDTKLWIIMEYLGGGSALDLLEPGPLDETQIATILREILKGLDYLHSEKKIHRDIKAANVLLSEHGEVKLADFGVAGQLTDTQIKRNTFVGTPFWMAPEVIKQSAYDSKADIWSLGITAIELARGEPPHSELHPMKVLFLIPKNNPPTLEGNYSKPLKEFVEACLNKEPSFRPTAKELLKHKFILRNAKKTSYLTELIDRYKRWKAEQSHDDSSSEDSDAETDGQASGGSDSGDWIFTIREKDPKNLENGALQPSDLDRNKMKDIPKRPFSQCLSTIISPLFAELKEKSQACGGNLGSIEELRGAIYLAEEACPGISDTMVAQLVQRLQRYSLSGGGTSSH
# Counter-ions that a name gives are not always drawn. The list shows a part of the results. The calls rarely recur for the same compound in another form.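 Kinases, fused to nanoluciferase, were expressed in K562 cells; luminescence was measured every 4 h from 2 to 18 h as percent of control (DMSO = 100%, positive control = 0%). A time point is decreased if signal falls significantly (2 sigma). Hits were called by the authors by a rule that is not shown; the count of time points alone does not decide it.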
# Target: STK24 (UniProt Q9Y6E0)
# Assay: number of time points (of 5) at which kinase-Nluc abundance scored as decreased, DMSO-normalised (count); higher = more persistent destabilization
# Conditions: K562; 2-18 h
row,SMILES,number of time points
1,Cn1cc(-c2cc(Oc3cc(F)c(NC(=O)C4(C(=O)Nc5ccccc5)CC4)cc3F)ccn2)cn1 (2.5 µM),0
2,Nc1[nH]nc2nc(-c3ccc(NS(=O)(=O)c4cc(Cl)ccc4Cl)cc3)cnc12 (10 µM),0
3,Cc1cccc(/C=N/Nc2cc(N3CCOCC3)n3nc(-c4ccncc4)cc3n2)c1 (10 µM),0
4,CC(C)n1ncnc1-c1cn2c(n1)-c1ccc(O[C@@H](C)C(N)=O)cc1OCC2 (10 µM),0
5,COC(=O)[C@H](CCSC)NC(=O)c1ccc(NC[C@@H](N)CS)cc1-c1ccccc1 [FTI-277 (hydrochloride)] (10 µM),0
6,O=C(Nc1cccc(-c2nc(-c3ccc(NC(=O)c4cccnc4)cc3Cl)no2)c1)Nc1ccc(NC(=O)C2CC2)c(C(F)(F)F)c1 (2.5 µM),0
7,CN1CCN(c2cc(-c3ccncc3)c(-c3ccc4ccccc4c3)nn2)CC1 (10 µM),0
8,CNC(=O)c1ccc2c(c1)ncn2-c1ccc(CC(=O)OC(C)(C)C)cc1 (10 µM),0
9,O=C(O)[C@H]1O[C@@H](Oc2cc3oc(-c4ccc(O)cc4)cc(=O)c3c(O)c2O)[C@H](O)[C@@H](O)[C@@H]1O [Scutellarin] (10 µM),0
10,Cc1nn(C)cc1-c1nc2c(N3CCN(Cc4ccc(Cl)cc4)CC3)c(Cl)cnc2[nH]1 (10 µM),0
11,Cc1cc(CSc2ccccc2C(=O)NCCNc2ccc(C(F)(F)F)cc2[N+](=O)[O-])on1 (10 µM),0
12,NC(=O)c1cnc(-c2ccc(C3(N)CCC3)cc2)c(-c2ccccc2)c1 (10 µM),0
13,CCCCCC(=O)N[C@@H](Cc1ccc(O)cc1)C(=O)OC (10 µM),0
14,CNC(=O)c1ccc2c(C(=Nc3cccc(CN(C)C)c3)c3ccccc3)c(O)[nH]c2c1 [MEK inhibitor] (10 µM),0
15,COc1cc2ncnc(Nc3cccc(I)c3)c2cc1OC (2.5 µM),0
16,COc1c(O)cc2oc(-c3ccc(O)cc3)cc(=O)c2c1O [Hispidulin] (10 µM),0
17,CC(C)=CC[C@@H](O)C1=CC(=O)c2c(O)ccc(O)c2C1=O [Shikonin] (10 µM),0
18,N[C@@H]1CCCN(c2c(/C=C3\SC(=O)NC3=O)cccc2-c2ccccc2)C1 (10 µM),0
19,NC(=O)c1ccc(N(C(N)=O)c2c(F)cccc2F)nc1-c1ccc(F)cc1F (10 µM),0

row,SMILES,number of time points
1,NC1(C(=O)NCCCn2cc(-c3ccc(OC(F)(F)F)cc3)c3cc(CN4CCN(Cc5c(Cl)cccc5Cl)CC4)ccc32)CCNCC1 (2.5 µM),0
2,Cc1cc(O)c2c(c1)C(=O)c1cccc(O)c1C2=O [Chrysophanol] (2 µM),0
3,COc1cc2nccc(Oc3ccc(NC(=O)c4cn(C(C)C)c(=O)n(-c5ccc(F)cc5)c4=O)cc3F)c2cc1OC (0.5 µM),0
4,O=C(Nc1cccnc1)c1cc(-c2ccnc(F)c2)ccc1OCc1ccccc1 (10 µM),0
5,NC[C@@](O)(c1ccc(Cl)cc1)c1ccc(-c2cn[nH]c2)cc1 (10 µM),0
6,O=C1NC(=O)/C(=C\c2c[nH]c(=O)c(-c3ccc(N4CCNCC4)nc3)c2)S1 [Protein kinase inhibitors 1 hydrochloride] (10 µM),0
7,C[C@@H](Nc1ncnc2[nH]c(-c3ccc(O)cc3)cc12)c1ccccc1 (2.5 µM),0
8,Cc1ccc(C(=O)NC2CC2)cc1-n1ncc(C(=O)c2cccc(C#N)c2)c1N [Acumapimod] (10 µM),0
9,C[C@H]1O[C@@H](O[C@H]2CC[C@@]3(C)[C@@H](CC[C@]4(C)[C@@H]3C=C[C@]35OC[C@@]6(CCC(C)(C)C[C@H]63)[C@H](O)C[C@]54C)[C@]2(C)CO)[C@H](O)[C@@H](O[C@@H]2O[C@H](CO)[C@@H](O)[C@H](O)[C@H]2O)[C@H]1O [Saikosaponin D] (2.5 µM),0
10,N#Cc1ccc(-c2cnc3[nH]cc(NC(=O)c4cccnc4)c3c2)cc1 (10 µM),0
11,CCCCCc1ccc(/C=C/[C@H](O)[C@@H](CO)NC)cc1 [SK1-I (hydrochloride)] (10 µM),0
12,COc1ccc2c3n(c(=NC(=O)c4cccnc4)nc2c1OC)CCN3 (2 µM),0
13,CN1CCN(c2ccc(Nc3ncc4cc(C#N)c(=O)n(C5CCCC5)c4n3)cc2)CC1 (10 µM),0
14,COc1ccc(S(=O)(=O)Nc2cc(-c3c(O)ccc4ccccc34)c(O)c3ccccc23)cc1 (10 µM),0
15,CC(C)(C)Cc1[nH]nc2c1[C@@](C)(c1ccccc1)C1=C(CC(C)(C)CC1=O)N2 (10 µM),0
16,Cn1c2cc([S+](C)[O-])sc2c2cnn(Cc3cccc(N)c3)c(=O)c21 (stereo not drawn) (2.5 µM),0
17,Nc1ncc(-c2ccnc(Nc3ccncc3)n2)c(CC2CC2)n1 (10 µM),0
18,O=C(NCCN1CCOCC1)Nc1nc2ccc(Sc3nnc4ccc(-c5ccc(F)cc5)nn34)cc2s1 (10 µM),0
19,CC(C)Oc1ccc(F)c(-c2cnc(N)c(C(=O)Nc3cnccc3N3CCC[C@@H](C(=O)O)C3)n2)c1 (2 µM),0

# 2 neighbouring records already listed, quoted:
row,SMILES,number of time points
8,CNC(=O)c1ccc2c(c1)ncn2-c1ccc(CC(=O)OC(C)(C)C)cc1 (10 µM),0
9,O=C(O)[C@H]1O[C@@H](Oc2cc3oc(-c4ccc(O)cc4)cc(=O)c3c(O)c2O)[C@H](O)[C@@H](O)[C@@H]1O [Scutellarin] (10 µM),0
